Data: patent US20120225180A1, “SALTINESS-IMPROVING AGENT FOR SALTY FOOD AND DRINK” (priority 2009, published 2012)

Experiment: Saltiness evaluation of shiokara (comparison evaluation of flavor by 10 panelists)
Format: in vivo
Conditions: sedanenolide in an amount of 10 ppm
Experimental: Sedanenolide was added as a saltiness-improving agent (salty stimulation-reducing agent) of the present invention to commercially available salted squid to obtain shiokara containing sedanenolide at the concentrations shown in the following Table 1.
A: the number of panelists who felt stimulation of saltiness B: the number of panelists who slightly felt stimulation of saltiness N: the number of panelists who judged that the stimulation of saltiness was reduced to mild saltiness Flavor judgment: the number of panelists who judged it as most proper saltiness

## CCCC[C@@H]1OC(=O)C2=C1CCC=C2 [sedanenolide]
  aroma other than saltiness: a slight spicy aroma other than saltiness was also felt
